Laboratory results taken from patent US20070174009A1, “Methods and systems for analyzing a network of biological functions” (National Institute Of Advanced Industrial Science And …, priority 2004, published 2007).
For at least one compound, name, drawing or mass did not settle the structure.

Test system: human neuroblastoma SHSY5Y
Experiment: Differentiation (neuritegenesis) of SH-SY5Y cells by RA or NGF
Type: cell-based
Details: SH-SY5Y culture with RA or NGF added, FIG. 13
Procedure: Human neuroblastoma (SHSY5Y) cells were maintained in Eagle's minimum essential medium (EMEM) supplemented with 10% (v/v) foetal bovine serum (FBS), 2% (v/v) glutamine and 1% (v/v) penicillin/streptomycin (10% medium), hereafter referred to as growth medium. Cells were incubated at 37° C. in a humidified atmosphere of 5% carbon dioxide.
Differentiation has been performed according to Yamada Y. et al., Neurosci Lett. 2004 Jun. 24; 364(1):11-15. Briefly, 100 ng/ml of NGF or […] of retinoic acid was added to the culture medium differentiate the SHSY5Y cells. Usually, when retinoic acid is added, the cell differentiates into cholinergic neuron-like cell as exemplified in FIG. 13. When NGF is added, the cell differentiates into dopaminergic neuron-like cells as exemplified in FIG. 13.

For `CC1=C(/C=C/C(C)=C/C=C/C(C)=C/C(=O)O)C(C)(C)CCC1` [RA, Retinoic acid, reference compound], which “Differentiation of SH-SY5Y cells” value is on record?
Its value is “differentiated into cholinergic neuron-line cells”.
